We go through 35 compounds from PubChem BioAssay AID248 (DTP/NCI, 2004).

The list shows only some results of the screen, not a fair sample: it is rich in T/C values a quarter to a half above the control, in often repeated tests (any T/C) and in doses without a T/C. Other doses and runs of a compound stand elsewhere. T/C: endpoint of the treated group in % of that of the vehicle group. Some entries give survivors of the animals treated and no T/C: the source files T/C as zero there, which appears to mark a toxic dose or a test without result, not a measured value. Some survivor counts are full or nearly so, which does not show that the dose was tolerated: survival well below the control is almost never listed, so the zero probably covers shortened survival too. Survivors were counted at the toxicity check, usually on the fifth day, unless a day is given; later deaths do not show. Schedules are NCI's codes, read here as Q, the interval in days (D) or hours (H), X, the number of doses. Some entries were tested several times; the results are listed from low to high. Some schedule codes hold Z or #, which are not explained here. Where survival is the endpoint, the PubChem record calls one and a half times the control and up active, and a quarter to a half above the control has no call in these data; cut-offs in other NCI protocols can differ. Some T/C values are followed by the survivors on the day toxicity was checked, most often the fifth; without a count, all were alive then.

This assay has as its system L1210 leukemia ip in BDF1 mice, survival T/C. In words: NCI In Vivo Anticancer Drug Screen. Data for tumor model L1210 Leukemia (intraperitoneal) in B6D2F1 (BDF1) mice. The following applies: T/C endpoint: mean survival time, higher T/C = longer survival.
Where [1] appears, read: dose: 100.0 mg/kg/injection, schedule: Q01DX009 (ip), vehicle: saline with Tween-80.
Where [2] appears, read: dose: 200.0 mg/kg/injection, schedule: Q01DX009 (ip), vehicle: other.
The mark [3] stands for this setting: dose: 400.0 mg/kg/injection, schedule: Q01DX009 (ip), vehicle: saline with Tween-80.
[4] abbreviates: dose: 200.0 mg/kg/injection, schedule: Q01DX009 (ip), vehicle: Klucel (hydroxypropylcellulose) (HPC).
The mark [5] stands for this setting: dose: 400.0 mg/kg/injection, schedule: Q04DX003 (ip), vehicle: saline with Tween-80.
Setting [6] is: dose: 400.0 mg/kg/injection, schedule: Q01DX001 (ip), vehicle: Klucel (hydroxypropylcellulose) (HPC).
[7] abbreviates: dose: 400.0 mg/kg/injection, schedule: Q04DX003 (ip), vehicle: saline.
[8] abbreviates: dose: 200.0 mg/kg/injection, schedule: Q04DX003 (ip), vehicle: saline.
Setting [9] is: dose: 400.0 mg/kg/injection, schedule: Q01DX009 (ip), vehicle: Klucel (hydroxypropylcellulose) (HPC).
[10] abbreviates: dose: 400.0 mg/kg/injection, schedule: Q01DX001 (ip), vehicle: saline.
[11] abbreviates: dose: 100.0 mg/kg/injection, schedule: Q01DX009 (ip), vehicle: Klucel (hydroxypropylcellulose) (HPC).
[12] abbreviates: dose: 100.0 mg/kg/injection, schedule: Q04DX002 (ip), vehicle: Klucel (hydroxypropylcellulose) (HPC).
Where [13] appears, read: dose: 200.0 mg/kg/injection, schedule: Q04DX002 (ip), vehicle: Klucel (hydroxypropylcellulose) (HPC).
Setting [14] is: dose: 400.0 mg/kg/injection, schedule: Q04DX002 (ip), vehicle: Klucel (hydroxypropylcellulose) (HPC).

Take `O=C(OCCCCOC(=O)c1cccc([N+](=O)[O-])c1)c1cccc([N+](=O)[O-])c1`: the survivor count (dose: 25.0 mg/kg/injection, schedule: Q01DX009 (ip), vehicle: saline with Tween-80) is reported as 1 of 6; the survivor count (dose: 50.0 mg/kg/injection, schedule: Q01DX009 (ip), vehicle: saline with Tween-80) was 0 of 6; the survivor count under setting [1] was 0 of 6.
Regarding `CC(C)(C)CNC(=S)Nc1ccccc1`, the survivor count (dose: 150.0 mg/kg/injection, schedule: Q01DX001 (ip), vehicle: other) is given as 1 of 6 and the survivor count (dose: 300.0 mg/kg/injection, schedule: Q01DX001 (ip), vehicle: other) was 0 of 6.
`COc1cc(C)c2oc(C)nc2c1`: where the note is “dose: 200.0 mg/kg/injection, schedule: Q01DX001 (ip), vehicle: Klucel (hydroxypropylcellulose) (HPC)”, the survivor count was 6 of 6.
Regarding `CCCCNC(=O)Oc1ccc(C(=O)OCCC)cc1`, the survivor count reads like this: under setting [2], 2 of 3; under setting [3], 3 of 6 and 2 of 3.
On to `O=C(CNC(=O)Nc1nccs1)N/N=C/c1ccc(Cl)cc1`, for which, under “dose: 200.0 mg/kg/injection, schedule: Q01DX009 (ip), vehicle: saline with Tween-80”, the survivor count is listed as 3 of 3.
`CC1(C)CCCC(Br)C1=O` (centres undefined): the survivor count under setting [4] was 3 of 3.
In the case of `COc1ccccc1C(C(C)C)C(C)C`, under setting [5], the survivor count is given as 3 of 6.
For `COc1ccc(NC(=O)Nc2cccc(SC)c2)cc1`, the survivor count (dose: 400.0 mg/kg/injection, schedule: Q01DX009 (ip), vehicle: carboxymethylcellulose (CMC)) was 3 of 3.
Turning to `O=C(/C=C(\Cl)c1ccc2c(c1)OCO2)OC/C=C\c1ccc2c(c1)OCO2`, the survivor count under setting [6] is recorded as 6 of 6.
With `Oc1cc(O)c2c(c1)OC(c1ccc(O)c(O)c1)C(OC1(c3cc(O)c(O)c(O)c3)Oc3cc(O)cc(O)c3C(O)C1O)C2` (centres undefined), under setting [3], the survivor count is 2 of 6.
For `CCN(CC)CCN(C)CCN(CC)CC`, the survivor count under setting [7] is given as 2 of 6.
As to `O=P(c1ccco1)(c1ccco1)c1ccco1`, the survivor count by setting is: (dose: 100.0 mg/kg/injection, schedule: Q04DX003 (ip), vehicle: saline with Tween-80) 5 of 6; (dose: 200.0 mg/kg/injection, schedule: Q04DX003 (ip), vehicle: saline with Tween-80) 1 of 6; under setting [5], 0 of 6.
Turning to `CCOP(=O)(OCC)O/N=C(/C#N)c1ccccc1`, the survivor count (dose: 150.0 mg/kg/injection, schedule: Q01DX001 (ip), vehicle: saline) is reported as 1 of 6 and the survivor count (dose: 300.0 mg/kg/injection, schedule: Q01DX001 (ip), vehicle: saline) is recorded as 0 of 6.
In the case of `CCCCC(CCN(C)C)(CNC(=O)CN(CC)CC)c1cccc2ccccc12` (centres undefined), the survivor count is 4 of 6 under setting [8] and 0 of 6 under setting [7].
As to `CC/C(=N/N=C(N)N)c1ccc(F)cc1`, the survivor count (dose: 120.0 mg/kg/injection, schedule: Q01DX Z (oral), vehicle: carboxymethylcellulose (CMC)) is 0 of 6.
In the case of `COc1cc2c(cc1OC)-c1cc3cc(OC)c(OC)cc3c(C)[n+]1CC2` (tested in a mixture with another compound), the T/C under setting [1] was 129 % of control [4 of 6 alive].
As for `O=C(Nc1ccc2c(c1)C(Br)c1ccccc1-2)C(F)(F)F` (centres undefined), the survivor count under setting [9] is 6 of 6.
Turning to `CC[N+](C)(CC)CCNC(=O)C(c1ccccc1)c1ccccc1`, the survivor count is recorded as 2 of 6 under setting [8] and 0 of 6 under setting [7].
Regarding `CNc1ccc(N=Nc2ccc3ncccc3c2)cc1`, the survivor count (dose: 22.5 mg/kg/injection, schedule: Q01DX Z (ip), vehicle: carboxymethylcellulose (CMC)) is listed as 6 of 6.
Consider `c1ccc(-c2ncc3cnccn23)cc1`, for which the survivor count is 6 of 6 under setting [8] and 0 of 6 under setting [7].
With `COc1ccc(N=CN(C)C)cc1`, the survivor count by setting is: (dose: 200.0 mg/kg/injection, schedule: Q01DX001 (ip), vehicle: saline) 0 of 4; under setting [10], 0 of 4.
For `NNS(=O)(=O)c1ccc([N+](=O)[O-])cc1`, the survivor count reads like this: under setting [11], 0 of 6; under setting [4], 0 of 6; under setting [9], 0 of 6.
Take `CNC(=O)Nc1ccc(Cl)cc1C`: under setting [9], the survivor count was 2 of 6.
In the case of `C/C(=N\NC(=O)C1CCCO1)c1cccc2ccccc12` (centres undefined), the survivor count (dose: 50.0 mg/kg/injection, schedule: Q01DX009 (ip), vehicle: Klucel (hydroxypropylcellulose) (HPC)) was 4 of 6; the survivor count under setting [11] is listed as 6 of 6; the survivor count under setting [4] is 0 of 6; the survivor count under setting [9] is reported as 0 of 6.
Turning to `COC(=O)c1ccc(OC(=O)Nc2ccc([N+](=O)[O-])cc2OC)cc1`, the survivor count runs as follows: under setting [4], 5 of 6; under setting [9], 2 of 6.
Take `CCN=C(NCC)c1ccc(NC(=O)c2ccc(C(=O)Nc3ccc(C(=NCC)NCC)cc3)c(Cl)c2)cc1`: the survivor count reads like this: (dose: 15.0 mg/kg/injection, schedule: Q01DX Z (ip), vehicle: carboxymethylcellulose (CMC)) 0 of 6; (dose: 30.0 mg/kg/injection, schedule: Q01DX Z (ip), vehicle: carboxymethylcellulose (CMC)) 0 of 6; (dose: 60.0 mg/kg/injection, schedule: Q01DX Z (ip), vehicle: carboxymethylcellulose (CMC)) 0 of 6; (dose: 120.0 mg/kg/injection, schedule: Q01DX Z (ip), vehicle: carboxymethylcellulose (CMC)) 0 of 6.
With `O=C1CCC(c2ccccc2)(C2CCN(Cc3ccc(F)cc3)CC2)C(=O)N1` (centres undefined), the survivor count runs as follows: (dose: 100.0 mg/kg/injection, schedule: Q01DX009 (ip), vehicle: other) 0 of 6; under setting [2], 0 of 6; (dose: 400.0 mg/kg/injection, schedule: Q01DX009 (ip), vehicle: other) 0 of 6.
In the case of `NC(=S)N/N=C/c1ccc(OC(F)(F)F)cn1`, for the setting “dose: 100.0 mg/kg/injection, schedule: Q04DX002 (ip), vehicle: saline with Tween-80”, the T/C is 142 % of control. The survivor count reads like this: (dose: 200.0 mg/kg/injection, schedule: Q04DX002 (ip), vehicle: saline with Tween-80) 2 of 3; (dose: 400.0 mg/kg/injection, schedule: Q04DX002 (ip), vehicle: saline with Tween-80) 0 of 3.
For `Cc1ccc2[nH]c3c(c2c1)C[P+](Cc1cccc2ccccc12)(c1ccccc1)CC3` (centres undefined), the survivor count under setting [6] is listed as 6 of 6.
Turning to `C[N+](C)(C)N=C1CCCCC1`, the survivor count under setting [10] is given as 0 of 4.
Consider `CC(C)C(=O)[O][Pb]([c]1ccccc1)([c]1ccccc1)[c]1ccccc1`, for which the survivor count is, setting by setting: under setting [12], 0 of 3; under setting [13], 0 of 3; under setting [14], 0 of 3.
As to `[Br][V]([Br])[Br]`, the survivor count (dose: 50.0 mg/kg/injection, schedule: Q01DX009 (ip), vehicle: saline sonified) was 3 of 6; the survivor count (dose: 100.0 mg/kg/injection, schedule: Q01DX009 (ip), vehicle: saline sonified) was 0 of 6; the survivor count under setting [8] is recorded as 1 of 6; the survivor count under setting [7] is given as 0 of 6.
For `ClC(Cl)c1nc2ccccc2[nH]1`, the survivor count (dose: 50.0 mg/kg/injection, schedule: Q01DX001 (ip), vehicle: Klucel (hydroxypropylcellulose) (HPC)) is recorded as 3 of 3; the survivor count (dose: 100.0 mg/kg/injection, schedule: Q01DX001 (ip), vehicle: Klucel (hydroxypropylcellulose) (HPC)) is 0 of 3; the survivor count (dose: 100.0 mg/kg/injection, schedule: Q04DX003 (ip), vehicle: saline) is listed as 4 of 6; the survivor count under setting [8] is listed as 1 of 6.
Regarding `CCCc1nc2c(c(=O)n(C)c(=O)n2C)n1C`, the survivor count (dose: 100.0 mg/kg/injection, schedule: Q01DX001 (ip), vehicle: saline) is recorded as 4 of 4.
With `N=C(N)SC1c2ccccc2-c2ccccc21`, the survivor count runs as follows: under setting [12], 0 of 3; under setting [13], 0 of 3; under setting [14], 0 of 3.
